In publication PMC11055865:
These are yes or no findings as the source states them, for the method shown.

Sequences of proteins named here, by UniProt entry; tags and fusion partners are left off.
UniProt Q9NXL9: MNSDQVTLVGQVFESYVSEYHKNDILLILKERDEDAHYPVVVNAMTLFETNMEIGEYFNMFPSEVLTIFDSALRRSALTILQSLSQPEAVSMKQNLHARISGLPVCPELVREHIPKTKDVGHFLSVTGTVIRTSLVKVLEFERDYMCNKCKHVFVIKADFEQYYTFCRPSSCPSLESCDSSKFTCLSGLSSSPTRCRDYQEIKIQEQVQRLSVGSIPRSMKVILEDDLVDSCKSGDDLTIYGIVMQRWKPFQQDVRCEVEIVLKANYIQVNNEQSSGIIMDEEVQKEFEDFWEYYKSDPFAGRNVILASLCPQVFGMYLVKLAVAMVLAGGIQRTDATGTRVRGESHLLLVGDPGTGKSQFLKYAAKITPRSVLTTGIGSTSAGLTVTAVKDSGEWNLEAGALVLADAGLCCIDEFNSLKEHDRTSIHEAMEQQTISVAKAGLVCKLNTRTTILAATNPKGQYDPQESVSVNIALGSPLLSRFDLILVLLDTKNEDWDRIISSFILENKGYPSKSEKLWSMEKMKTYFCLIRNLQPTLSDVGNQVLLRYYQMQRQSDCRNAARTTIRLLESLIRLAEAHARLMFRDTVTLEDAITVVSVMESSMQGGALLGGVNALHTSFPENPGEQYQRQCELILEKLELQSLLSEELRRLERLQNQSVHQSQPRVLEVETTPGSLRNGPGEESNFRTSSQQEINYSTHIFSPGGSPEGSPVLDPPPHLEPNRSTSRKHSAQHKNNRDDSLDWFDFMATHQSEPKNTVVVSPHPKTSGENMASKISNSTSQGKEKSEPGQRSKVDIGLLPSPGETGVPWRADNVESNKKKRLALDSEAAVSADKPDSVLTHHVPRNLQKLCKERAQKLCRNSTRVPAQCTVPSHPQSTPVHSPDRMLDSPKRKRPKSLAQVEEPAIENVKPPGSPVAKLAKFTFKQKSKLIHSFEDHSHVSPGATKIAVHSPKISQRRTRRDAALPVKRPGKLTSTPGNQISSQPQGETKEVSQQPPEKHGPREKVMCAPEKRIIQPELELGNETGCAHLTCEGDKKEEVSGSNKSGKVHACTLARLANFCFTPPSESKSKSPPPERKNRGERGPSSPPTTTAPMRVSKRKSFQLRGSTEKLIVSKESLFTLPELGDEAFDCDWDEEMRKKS

Target: MBP-tagged MCM9 (human) (UniProt Q9NXL9)
Assay: mass photometry; protein alone in solution, no DNA; 50-200 nM final protein in 50 mM Tris-HCl pH 7.5, 100 mM NaCl; oligomeric state of MCM8-9 unchanged with ATP-γ-S; both purified

binding: no binding
Substance: MBP-tagged MCM9 (from UniProt Q9NXL9 1-1143)
